According to patent US20260097097A1:
No constants are given. Whether binding was seen depends on the method and setting. Some binding calls cover weakened binding; strength is not graded here.

Amino acid sequences for entries named in this document (tags omitted). A change or cut given only in a name is not applied to a line headed by its entry. Residues count along the entry.
UniProt P22004, residues 382-513: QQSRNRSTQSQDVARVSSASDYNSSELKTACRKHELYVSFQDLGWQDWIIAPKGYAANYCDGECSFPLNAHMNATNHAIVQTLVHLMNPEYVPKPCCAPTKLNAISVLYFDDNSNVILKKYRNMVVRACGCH
UniProt P27037: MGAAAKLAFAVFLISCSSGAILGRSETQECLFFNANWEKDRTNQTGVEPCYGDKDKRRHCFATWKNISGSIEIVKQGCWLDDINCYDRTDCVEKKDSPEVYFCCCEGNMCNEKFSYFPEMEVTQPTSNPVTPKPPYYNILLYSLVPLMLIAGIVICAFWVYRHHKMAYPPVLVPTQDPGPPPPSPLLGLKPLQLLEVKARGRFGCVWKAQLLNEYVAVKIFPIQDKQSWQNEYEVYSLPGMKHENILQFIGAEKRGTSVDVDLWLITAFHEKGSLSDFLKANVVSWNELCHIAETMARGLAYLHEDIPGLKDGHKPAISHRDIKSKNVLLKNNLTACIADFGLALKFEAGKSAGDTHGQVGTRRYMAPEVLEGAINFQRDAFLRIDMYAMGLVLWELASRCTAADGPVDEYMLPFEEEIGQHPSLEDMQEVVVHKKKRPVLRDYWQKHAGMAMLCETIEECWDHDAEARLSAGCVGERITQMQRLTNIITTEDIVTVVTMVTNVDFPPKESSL

Columns and labels:
BMP10 = target: T1, BMP10 (UniProt O95393); test: similar Biacore binding assay
T1 sequence (looked up): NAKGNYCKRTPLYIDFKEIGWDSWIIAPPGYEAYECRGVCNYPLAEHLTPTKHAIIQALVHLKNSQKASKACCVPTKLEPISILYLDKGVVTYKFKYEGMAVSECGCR

BMP6 = BMP6 (UniProt P22004); test: similar Biacore binding assay
activin B = target: T2, activin B (UniProt P09529); test: similar Biacore binding assay
T2 sequence (looked up): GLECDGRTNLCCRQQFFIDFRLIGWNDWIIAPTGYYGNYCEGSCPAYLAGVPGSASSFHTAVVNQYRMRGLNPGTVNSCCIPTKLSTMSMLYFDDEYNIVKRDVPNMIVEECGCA

GDF8 = target: T3, GDF8 (UniProt O14793); test: similar Biacore binding assay
T3 sequence (looked up): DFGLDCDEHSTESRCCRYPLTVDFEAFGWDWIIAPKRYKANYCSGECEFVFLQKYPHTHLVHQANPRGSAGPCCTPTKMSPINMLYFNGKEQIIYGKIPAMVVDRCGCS

GDF11 = target: T4, GDF11 (UniProt O95390); test: Biacore, ligand amine-coupled to CM5 chip
T4 sequence (looked up): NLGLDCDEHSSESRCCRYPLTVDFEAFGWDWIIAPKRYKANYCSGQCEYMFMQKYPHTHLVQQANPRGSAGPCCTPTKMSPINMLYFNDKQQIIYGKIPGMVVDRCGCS

binding (BMP10): binds
binding (BMP6): binds
binding (activin B): binds
binding (GDF8): binds
binding (GDF11): binds
Substance: ActRIIa-mFc (from UniProt P27037 21-135) (Fc fusion)
